Among the data in the supplement of paper PMC10849652 are log2 fold change values, retold here.

By UniProt entry, the sequences of proteins in these tests, tags left out. Where a name states a change or a piece, a line headed by the entry shows the natural chain unless it says otherwise.
UniProt Q00537: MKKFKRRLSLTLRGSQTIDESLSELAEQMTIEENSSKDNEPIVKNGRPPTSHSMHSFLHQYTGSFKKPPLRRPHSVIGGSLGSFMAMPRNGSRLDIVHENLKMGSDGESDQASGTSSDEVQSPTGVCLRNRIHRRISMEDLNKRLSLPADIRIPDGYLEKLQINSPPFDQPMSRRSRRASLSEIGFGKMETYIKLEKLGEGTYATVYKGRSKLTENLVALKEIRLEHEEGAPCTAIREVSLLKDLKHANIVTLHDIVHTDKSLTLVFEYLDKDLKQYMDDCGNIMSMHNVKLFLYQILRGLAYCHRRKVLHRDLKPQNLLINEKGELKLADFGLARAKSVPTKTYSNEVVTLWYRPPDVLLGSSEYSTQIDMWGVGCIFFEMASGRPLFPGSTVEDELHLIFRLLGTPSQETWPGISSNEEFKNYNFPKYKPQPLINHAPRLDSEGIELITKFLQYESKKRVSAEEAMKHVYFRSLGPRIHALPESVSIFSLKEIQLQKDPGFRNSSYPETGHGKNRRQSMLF
UniProt Q8IW35: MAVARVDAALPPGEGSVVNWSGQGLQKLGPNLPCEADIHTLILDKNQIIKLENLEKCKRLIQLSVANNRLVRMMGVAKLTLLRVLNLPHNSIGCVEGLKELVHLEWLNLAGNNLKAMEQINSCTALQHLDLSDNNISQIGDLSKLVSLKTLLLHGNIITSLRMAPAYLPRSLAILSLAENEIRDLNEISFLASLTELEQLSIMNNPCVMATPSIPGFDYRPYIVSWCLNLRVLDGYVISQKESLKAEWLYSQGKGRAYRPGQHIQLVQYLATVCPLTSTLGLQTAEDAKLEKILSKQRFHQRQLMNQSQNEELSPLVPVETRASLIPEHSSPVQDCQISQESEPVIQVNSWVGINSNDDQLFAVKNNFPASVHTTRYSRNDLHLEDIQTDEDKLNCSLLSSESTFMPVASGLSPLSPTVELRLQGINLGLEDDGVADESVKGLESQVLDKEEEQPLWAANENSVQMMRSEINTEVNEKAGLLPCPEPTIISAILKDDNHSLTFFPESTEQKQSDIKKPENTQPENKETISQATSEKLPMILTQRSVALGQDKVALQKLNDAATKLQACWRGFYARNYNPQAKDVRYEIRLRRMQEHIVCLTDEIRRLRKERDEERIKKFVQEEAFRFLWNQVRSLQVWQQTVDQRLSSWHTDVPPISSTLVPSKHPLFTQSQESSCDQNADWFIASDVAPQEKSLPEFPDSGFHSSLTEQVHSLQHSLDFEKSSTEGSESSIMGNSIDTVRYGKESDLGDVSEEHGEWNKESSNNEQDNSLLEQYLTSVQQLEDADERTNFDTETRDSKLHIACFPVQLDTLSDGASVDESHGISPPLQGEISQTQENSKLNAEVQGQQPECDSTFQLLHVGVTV
UniProt Q13111, whole entry, looked up: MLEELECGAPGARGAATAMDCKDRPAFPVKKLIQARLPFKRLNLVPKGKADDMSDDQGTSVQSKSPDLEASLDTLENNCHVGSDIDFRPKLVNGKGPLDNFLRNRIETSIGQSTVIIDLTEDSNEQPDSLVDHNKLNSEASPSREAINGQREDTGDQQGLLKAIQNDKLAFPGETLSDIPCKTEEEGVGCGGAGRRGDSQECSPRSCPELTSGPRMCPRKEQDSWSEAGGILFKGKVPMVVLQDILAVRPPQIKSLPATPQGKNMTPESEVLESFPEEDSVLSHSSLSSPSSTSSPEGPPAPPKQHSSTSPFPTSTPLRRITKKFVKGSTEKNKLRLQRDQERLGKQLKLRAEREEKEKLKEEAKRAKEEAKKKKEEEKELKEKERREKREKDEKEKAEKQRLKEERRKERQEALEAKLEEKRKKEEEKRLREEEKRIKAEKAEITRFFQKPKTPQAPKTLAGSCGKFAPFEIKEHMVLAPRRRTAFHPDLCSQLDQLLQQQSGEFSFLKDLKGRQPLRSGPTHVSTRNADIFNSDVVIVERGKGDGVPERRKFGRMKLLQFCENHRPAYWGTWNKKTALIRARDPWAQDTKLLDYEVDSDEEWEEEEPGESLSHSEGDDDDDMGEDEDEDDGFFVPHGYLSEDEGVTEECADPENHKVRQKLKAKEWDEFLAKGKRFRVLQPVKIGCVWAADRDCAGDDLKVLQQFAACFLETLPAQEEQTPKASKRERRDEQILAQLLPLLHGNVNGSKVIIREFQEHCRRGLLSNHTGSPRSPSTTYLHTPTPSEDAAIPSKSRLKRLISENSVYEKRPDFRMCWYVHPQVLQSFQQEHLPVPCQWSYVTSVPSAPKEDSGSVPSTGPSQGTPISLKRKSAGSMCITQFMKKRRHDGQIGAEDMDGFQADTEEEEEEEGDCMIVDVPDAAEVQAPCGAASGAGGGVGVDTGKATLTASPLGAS
UniProt Q69YH5: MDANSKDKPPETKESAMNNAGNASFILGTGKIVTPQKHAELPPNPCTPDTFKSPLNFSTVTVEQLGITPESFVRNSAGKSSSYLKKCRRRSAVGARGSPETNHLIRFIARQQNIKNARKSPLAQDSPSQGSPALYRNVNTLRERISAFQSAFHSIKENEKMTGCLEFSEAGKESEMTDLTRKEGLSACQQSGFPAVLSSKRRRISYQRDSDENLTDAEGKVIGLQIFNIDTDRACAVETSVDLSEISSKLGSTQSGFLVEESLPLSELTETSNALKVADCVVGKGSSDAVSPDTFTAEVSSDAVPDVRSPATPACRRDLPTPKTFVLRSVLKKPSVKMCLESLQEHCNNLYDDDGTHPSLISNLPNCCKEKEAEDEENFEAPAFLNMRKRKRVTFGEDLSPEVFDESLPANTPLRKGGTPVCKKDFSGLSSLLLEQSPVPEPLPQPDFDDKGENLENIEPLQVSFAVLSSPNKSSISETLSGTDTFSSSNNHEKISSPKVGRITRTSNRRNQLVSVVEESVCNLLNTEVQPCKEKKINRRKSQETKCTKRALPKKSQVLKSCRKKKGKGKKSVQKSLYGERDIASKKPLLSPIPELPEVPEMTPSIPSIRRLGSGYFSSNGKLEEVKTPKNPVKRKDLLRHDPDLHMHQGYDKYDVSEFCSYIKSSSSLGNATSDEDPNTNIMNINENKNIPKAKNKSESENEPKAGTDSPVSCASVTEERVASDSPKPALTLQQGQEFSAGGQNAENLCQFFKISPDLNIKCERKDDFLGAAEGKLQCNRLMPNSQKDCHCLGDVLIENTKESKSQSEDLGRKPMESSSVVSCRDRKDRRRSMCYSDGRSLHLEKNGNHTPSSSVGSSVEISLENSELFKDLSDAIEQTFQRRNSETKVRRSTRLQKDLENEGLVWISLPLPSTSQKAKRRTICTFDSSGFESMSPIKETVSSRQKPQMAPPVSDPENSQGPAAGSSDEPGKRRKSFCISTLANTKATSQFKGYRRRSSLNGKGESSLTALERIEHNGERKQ
UniProt Q9HC77: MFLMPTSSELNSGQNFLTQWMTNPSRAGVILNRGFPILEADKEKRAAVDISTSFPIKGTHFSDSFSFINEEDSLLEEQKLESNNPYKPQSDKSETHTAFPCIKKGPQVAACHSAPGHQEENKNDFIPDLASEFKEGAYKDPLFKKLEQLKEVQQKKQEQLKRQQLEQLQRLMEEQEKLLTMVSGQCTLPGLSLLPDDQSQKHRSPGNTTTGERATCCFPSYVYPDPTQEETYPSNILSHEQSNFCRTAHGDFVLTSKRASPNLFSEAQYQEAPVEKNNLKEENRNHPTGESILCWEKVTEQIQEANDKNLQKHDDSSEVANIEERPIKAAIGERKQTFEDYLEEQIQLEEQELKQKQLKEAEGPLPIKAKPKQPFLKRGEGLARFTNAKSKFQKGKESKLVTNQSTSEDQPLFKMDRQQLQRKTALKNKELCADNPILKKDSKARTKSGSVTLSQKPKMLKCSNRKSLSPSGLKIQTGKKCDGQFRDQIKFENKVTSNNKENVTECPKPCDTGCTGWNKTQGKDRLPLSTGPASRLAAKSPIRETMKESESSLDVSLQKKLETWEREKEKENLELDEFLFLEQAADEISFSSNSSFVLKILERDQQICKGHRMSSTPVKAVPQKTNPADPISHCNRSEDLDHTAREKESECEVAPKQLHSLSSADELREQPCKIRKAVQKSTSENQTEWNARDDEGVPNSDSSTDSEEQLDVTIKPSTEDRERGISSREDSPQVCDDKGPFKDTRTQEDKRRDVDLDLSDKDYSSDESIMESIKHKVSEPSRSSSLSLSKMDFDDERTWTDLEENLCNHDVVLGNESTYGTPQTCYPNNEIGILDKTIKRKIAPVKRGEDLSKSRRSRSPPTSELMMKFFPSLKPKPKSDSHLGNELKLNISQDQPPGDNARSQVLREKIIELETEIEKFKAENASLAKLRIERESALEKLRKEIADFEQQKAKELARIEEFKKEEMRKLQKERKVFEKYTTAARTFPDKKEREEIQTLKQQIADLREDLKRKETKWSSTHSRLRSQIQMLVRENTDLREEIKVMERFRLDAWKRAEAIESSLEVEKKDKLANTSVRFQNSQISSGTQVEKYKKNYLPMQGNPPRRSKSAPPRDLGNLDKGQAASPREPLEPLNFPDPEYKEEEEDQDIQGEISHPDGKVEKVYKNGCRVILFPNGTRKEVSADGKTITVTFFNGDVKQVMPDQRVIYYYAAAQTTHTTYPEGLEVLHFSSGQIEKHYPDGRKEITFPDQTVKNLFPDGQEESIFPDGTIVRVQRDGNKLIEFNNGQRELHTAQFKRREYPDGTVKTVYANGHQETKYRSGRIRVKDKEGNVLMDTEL
UniProt Q711Q0: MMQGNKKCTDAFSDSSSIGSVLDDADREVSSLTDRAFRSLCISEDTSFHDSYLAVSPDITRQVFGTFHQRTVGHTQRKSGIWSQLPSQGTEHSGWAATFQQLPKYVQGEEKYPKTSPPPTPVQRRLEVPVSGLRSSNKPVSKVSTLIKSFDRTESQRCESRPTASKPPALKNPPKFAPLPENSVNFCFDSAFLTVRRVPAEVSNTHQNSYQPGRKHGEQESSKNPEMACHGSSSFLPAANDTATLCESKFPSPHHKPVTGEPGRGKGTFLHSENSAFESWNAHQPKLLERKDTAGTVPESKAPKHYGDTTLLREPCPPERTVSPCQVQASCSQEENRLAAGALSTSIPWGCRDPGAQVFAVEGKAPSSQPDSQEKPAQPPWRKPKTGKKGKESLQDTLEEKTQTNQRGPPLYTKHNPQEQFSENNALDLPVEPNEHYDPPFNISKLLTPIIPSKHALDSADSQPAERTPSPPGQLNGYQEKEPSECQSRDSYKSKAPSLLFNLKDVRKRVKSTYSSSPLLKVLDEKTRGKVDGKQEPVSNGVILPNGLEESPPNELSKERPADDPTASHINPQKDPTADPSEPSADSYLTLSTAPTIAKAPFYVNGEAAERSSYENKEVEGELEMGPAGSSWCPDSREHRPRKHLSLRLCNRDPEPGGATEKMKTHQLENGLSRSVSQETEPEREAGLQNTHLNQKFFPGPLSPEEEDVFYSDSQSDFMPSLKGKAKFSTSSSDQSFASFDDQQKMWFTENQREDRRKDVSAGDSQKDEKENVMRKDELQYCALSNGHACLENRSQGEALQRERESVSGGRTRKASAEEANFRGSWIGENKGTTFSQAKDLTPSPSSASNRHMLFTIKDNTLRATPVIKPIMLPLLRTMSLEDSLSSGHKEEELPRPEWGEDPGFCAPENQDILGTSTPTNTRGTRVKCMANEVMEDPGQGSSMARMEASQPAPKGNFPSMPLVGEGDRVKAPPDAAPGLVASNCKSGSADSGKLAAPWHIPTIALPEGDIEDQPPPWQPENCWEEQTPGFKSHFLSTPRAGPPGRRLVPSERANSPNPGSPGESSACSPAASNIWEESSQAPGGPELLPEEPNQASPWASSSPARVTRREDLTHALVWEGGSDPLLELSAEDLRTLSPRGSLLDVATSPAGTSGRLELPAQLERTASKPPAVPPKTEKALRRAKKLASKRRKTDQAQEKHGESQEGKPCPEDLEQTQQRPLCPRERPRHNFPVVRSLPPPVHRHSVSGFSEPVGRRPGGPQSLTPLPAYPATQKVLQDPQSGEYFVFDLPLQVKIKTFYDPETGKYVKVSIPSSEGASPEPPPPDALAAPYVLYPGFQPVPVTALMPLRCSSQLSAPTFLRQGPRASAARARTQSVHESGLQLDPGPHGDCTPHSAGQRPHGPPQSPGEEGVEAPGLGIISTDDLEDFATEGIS
UniProt A8MT69: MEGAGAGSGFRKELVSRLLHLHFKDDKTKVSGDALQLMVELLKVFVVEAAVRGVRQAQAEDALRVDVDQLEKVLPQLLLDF
UniProt Q9BS16: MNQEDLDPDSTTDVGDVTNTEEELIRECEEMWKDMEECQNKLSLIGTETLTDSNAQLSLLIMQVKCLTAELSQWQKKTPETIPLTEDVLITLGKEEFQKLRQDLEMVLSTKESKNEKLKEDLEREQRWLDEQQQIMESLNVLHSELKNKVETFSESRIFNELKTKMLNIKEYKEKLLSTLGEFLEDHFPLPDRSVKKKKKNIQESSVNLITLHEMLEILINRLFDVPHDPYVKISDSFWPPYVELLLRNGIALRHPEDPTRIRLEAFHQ

Common to all, as to assay: log2 fold change, soluble protein after heating vs DMSO (PISA); higher = thermal stabilisation; K562 cells, 10 uM, 30 min; active = over 0.2 and 3.5 SD of the protein, either way, in both replicates (recomputed)
Compound in experiment [1]: COC1=CC=C(C=C1)CN2C=CC3=C2C=C(C=C3)C(=O)NO
In short, it runs like this:
(§1)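 K562 cells at 2×10^6 cells/mL were given 10 μM compound for 30 min. Aliquots then went through 3 min of heating across 48°C-58°C, were pooled, and were extracted in PBS with 0.5% NP-40 at 4°C, and the supernatant after 21,000xg for 90 min was quantified by TMTpro 16plex LC-MS/MS with channel sums equalised. Thermal stability relative to control samples, from duplicates, is given as log2 fold change.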

Compound in experiment [2]: CON(C)C(=O)N1N=C(c2cc(F)ccc2F)S[C@@]1(CCCN)c1ccccc1 [filanesib]
In short, it runs like this: as §1

Compound in experiment [3]: CO[C@H]1C[C@@H]2CC[C@@H](C)[C@@](O)(O2)C(=O)C(=O)N2CCCC[C@H]2C(=O)O[C@H]([C@H](C)C[C@@H]2CC[C@H](n3cnnn3)[C@H](OC)C2)CC(=O)[C@H](C)/C=C(\C)[C@@H](O)[C@@H](OC)C(=O)[C@H](C)C[C@H](C)/C=C/C=C/C=C/1C [zotarolimus]
In short, it runs like this:
as §1

Compound in experiment [4]: COc1cc(C(=O)O)ccc1NC(=O)[C@@H]1N[C@@H](CC(C)(C)C)[C@](C#N)(c2ccc(Cl)cc2F)[C@H]1c1cccc(Cl)c1F [idasanutlin]
An outline of the steps: as §1

Compound in experiment [5]: COc1cc(Nc2ncc3c(n2)-c2ccc(Cl)cc2C(c2c(F)cccc2OC)=NC3)ccc1C(=O)O [alisertib]
An outline of the steps:
as §1

Compound in experiment [6]: COc1cc2nc(-c3cc(F)ccc3O)nc(N[C@@H]3CNC[C@H]3C(C)(C)O)c2cc1OC
An outline of the steps: as §1

Compound in experiment [7]: COc1cc2ncnc(Nc3ccc(F)c(Cl)c3)c2cc1OCCCN1CCOCC1 [gefitinib]
In short, it runs like this:
as §1

Compound in experiment [8]: COc1cccc2cc(-c3nc([C@H]4CC[C@H](C(=O)O)CC4)n4ncnc(N)c34)[nH]c12
An outline of the steps: as §1

Compound in experiment [9]: CS(=O)(=O)CCNCc1ccc(-c2ccc3ncnc(Nc4ccc(OCc5cccc(F)c5)c(Cl)c4)c3c2)o1 [lapatinib]
In short, it runs like this:
as §1

Compound in experiment [10]: CS(=O)(=O)N1CCN(Cc2cc3nc(-c4cccc5[nH]ncc45)nc(N4CCOCC4)c3s2)CC1 [pictilisib]
An outline of the steps:
as §1

Some of the results follow.

For CHMP3 (UniProt Q9Y3E7), the log2 fold change in experiment [1] was inactive: -0.038; in [2], inactive: -0.056; in [3], inactive: 0.019; in experiment [4], inactive: -0.024; in experiment [5], inactive: 0.006; in [6] it was inactive: 0.054. Also, the log2 fold change in experiment [7] was inactive: -0.009; in [8] it was inactive: 0.013; in experiment [9], inactive: -0.093; in experiment [10], inactive: 0.012.
On to CHM (UniProt P24386), for which the log2 fold change was inactive: 0.024 in experiment [1]; inactive: -0.015 in experiment [2]; inactive: 0.008 in experiment [3]; inactive: 0.356 in experiment [4]; inactive: -0.01 in [5]; inactive: 0.055 in experiment [6]. In addition, the log2 fold change in experiment [8] was inactive: -0.004; in experiment [9], inactive: -0.049; in experiment [10], inactive: 0.075.
Take CDK17 isoform 2 (UniProt Q00537): the log2 fold change was inactive: -0.031 in experiment [1]; inactive: -0.024 in experiment [2]; inactive: -0.208 in [3]; inactive: 0.03 in experiment [4]; inactive: 0.508 in [5]; inactive: 0.051 in experiment [6]. For the same target, the log2 fold change is inactive: 0.103 in experiment [8], inactive: 0.049 in experiment [9] and inactive: 0.158 in experiment [10].
As for CEP131 (UniProt Q9UPN4), the log2 fold change was inactive: 0.003 in experiment [1]; inactive: 0.343 in experiment [2]; inactive: 0.072 in experiment [3]; inactive: 0.146 in [4]; inactive: -0.358 in experiment [5]; inactive: -0.085 in [6]. Moreover, the log2 fold change in [8] was inactive: -0.167; in experiment [9], inactive: -0.064; in experiment [10], inactive: -0.011.
On to CEP135 (UniProt Q66GS9), for which the log2 fold change is inactive: 0.623 in [1]; inactive: 0.212 in experiment [2]; inactive: 0.103 in experiment [3]; inactive: -0.124 in [4]; inactive: 0.043 in [10].
Regarding CEP97 isoform 2 (UniProt Q8IW35), the log2 fold change in [1] is inactive: -0.12; in experiment [2], inactive: 0.094; in experiment [3], inactive: -0.009; in experiment [4], inactive: -0.022; in [6], inactive: 0.097; in [7] it was inactive: 0.092. Moreover, the log2 fold change in experiment [9] is inactive: -0.111.
As for CHAF1A (UniProt Q13111), the log2 fold change is inactive: -0.149 in [1]; inactive: 0.143 in experiment [2]; inactive: -0.145 in [3]; inactive: 0.05 in experiment [4]; inactive: 0 in [5]; inactive: 0.007 in [6]. Besides, the log2 fold change is inactive: 0.169 in [7], inactive: 0.004 in experiment [8], inactive: 0.169 in experiment [9] and inactive: 0.031 in experiment [10].
With CEP128 (UniProt Q6ZU80), the log2 fold change in experiment [1] is inactive: -0.269; in experiment [2], inactive: 0.031; in experiment [3] it was inactive: -0.101; in experiment [4], inactive: -0.103; in experiment [5], active: 0.677; in [6] it was inactive: 0.076. Further, the results for the log2 fold change in experiment [8] and in experiment [9] were inactive: -0.381 and inactive: -0.198, respectively.
As to CEP250 (UniProt Q9BV73), the log2 fold change in [1] was inactive: 0.131; in experiment [2], inactive: 0.138; in experiment [3], inactive: 0.132; in experiment [5], inactive: -0.009; in [6], inactive: 0.103; in experiment [7], inactive: 0.016. In addition, the figures for the log2 fold change in experiment [8] and in experiment [9] were inactive: -0.025 and inactive: -0.131, respectively.
In the case of CDCA2 (UniProt Q69YH5), the log2 fold change was inactive: 0.278 in [1]; inactive: -0.036 in [2]; inactive: -0.04 in experiment [3]; inactive: 0.018 in experiment [4]; inactive: 0.585 in [5]; inactive: -0.079 in [6]. In addition, the log2 fold change in [7] is inactive: 0.109; in experiment [8] it was inactive: -0.011; in [9], inactive: 0.204; in experiment [10], inactive: -0.127.
Take CENPU (UniProt Q71F23): the log2 fold change is inactive: -0.049 in experiment [1]; inactive: 0.45 in [2]; inactive: 0.457 in experiment [4]; inactive: 0.116 in experiment [6]; inactive: 0.044 in experiment [9].
The matching figures for CENPJ (UniProt Q9HC77): inactive: -0.317, inactive: 0.163, inactive: 0.176, inactive: 0.067 and inactive: -0.137.
Take CDK19 (UniProt Q9BWU1): the log2 fold change in [2] was inactive: 0.154; in experiment [3] it was inactive: -0.069; in experiment [4] it was inactive: -0.161; in experiment [5] it was inactive: 0.234; in [6], inactive: 0.138; in experiment [7] it was inactive: -0.095. The log2 fold change in experiment [8] is inactive: -0.045; in experiment [9], inactive: -0.192; in experiment [10], inactive: 0.073.
As to CEFIP (UniProt Q711Q0), the log2 fold change in [4] is inactive: 0.105; in [5] it was inactive: -0.175; in experiment [6] it was inactive: 0.077; in experiment [8], inactive: 0.037; in experiment [9], inactive: 0.046.
Turning to CEBPZ (UniProt Q03701), the log2 fold change in experiment [2] was inactive: 0.38; in experiment [3], inactive: 0.173; in experiment [5], inactive: -0.119; in [8] it was inactive: -0.108; in experiment [10], inactive: 0.117.
Consider CENPX (UniProt A8MT69), for which the log2 fold change in experiment [2] was inactive: 0.115.
Regarding CER1 (UniProt O95813), the log2 fold change in experiment [10] is inactive: -0.831.
CENPK (UniProt Q9BS16): the log2 fold change in [1] was inactive: 0.053; in [3], inactive: -0.117; in experiment [6] it was inactive: 0.061; in experiment [7], inactive: -0.005; in experiment [9], inactive: -0.062.
